Measured values: US20110124006A1, “METHOD FOR SCREENING OF THERAPEUTIC AGENT FOR CANCER” (Hismitsu Pharmaceutical Co., Inc., priority 2008, published 2011)
No constants are given. Whether binding was seen depends on the method and setting. Binding seen in cells or lysates may run through a third protein. Some binding calls cover weakened binding; strength is not graded here.

Chains of the proteins cited; added tags and fusions are not shown. Lines headed by an entry give the natural chain unless they say otherwise; changes in a name come on top.
UniProt Q6UXK5: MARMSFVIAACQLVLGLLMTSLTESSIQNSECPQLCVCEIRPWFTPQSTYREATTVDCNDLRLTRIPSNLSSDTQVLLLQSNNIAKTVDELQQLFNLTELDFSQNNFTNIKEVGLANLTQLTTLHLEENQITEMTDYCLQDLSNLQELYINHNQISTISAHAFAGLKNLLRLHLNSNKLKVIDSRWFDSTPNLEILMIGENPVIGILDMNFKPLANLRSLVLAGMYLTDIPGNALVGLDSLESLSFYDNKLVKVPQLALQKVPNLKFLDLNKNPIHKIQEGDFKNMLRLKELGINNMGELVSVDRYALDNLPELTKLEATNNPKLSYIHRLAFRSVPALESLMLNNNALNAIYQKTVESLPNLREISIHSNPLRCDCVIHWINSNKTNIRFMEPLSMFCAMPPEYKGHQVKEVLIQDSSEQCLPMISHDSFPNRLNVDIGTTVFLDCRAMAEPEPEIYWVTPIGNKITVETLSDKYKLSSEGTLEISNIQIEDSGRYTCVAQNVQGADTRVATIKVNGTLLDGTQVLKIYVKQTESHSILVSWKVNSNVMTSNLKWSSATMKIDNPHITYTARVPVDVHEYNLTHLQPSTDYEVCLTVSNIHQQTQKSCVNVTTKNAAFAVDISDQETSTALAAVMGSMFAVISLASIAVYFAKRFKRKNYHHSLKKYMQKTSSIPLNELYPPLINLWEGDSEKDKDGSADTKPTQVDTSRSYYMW

Experiments:
[1] = target: EGFR (epidermal growth factor receptor) (UniProt P00533); assay: co-immunoprecipitation (IP with anti-EGFR antibody, immunoblot with anti-HA antibody)
[2] = target: EGFR (epidermal growth factor receptor) (UniProt P00533); assay: co-immunoprecipitation from 293 cells (DSP cross-linking, IP with anti-EGFR antibody, immunoblot with anti-HA antibody), with or without 10 ng/ml EGF

NLRR1 tagged with a HA tag (from UniProt Q6UXK5 26-716) (receptor)
binding [1]: binds
binding [2]: binds
